{
  "source": "PubChem BioAssay AID624291",
  "about": "(National Center for Advancing Translational Sciences (NCATS), 2012)",
  "note": "In all, about 350,000 compounds went through this assay and about 220 (0.063%) were called active. This list was built around the results that the source calls inconclusive (neither active nor inactive); the mix of calls is not that of the screen. The call rests on the fitted dose curve; in most records, active means well fitted activation curve with a large enough effect; inconclusive means small, poorly fitted or top-dose-only effect; inactive means no such curve, though single readings can be large or run the other way. Where the call is inconclusive, the potency comes from a doubtful curve fit. Potency means the concentration at half of the fitted maximal effect.",
  "data": [
    {"experiment": "qHTS for Activators of Integrin-Mediated Alleviation for Muscular Dystrophy; further: nearly all actives have a fitted effect of over 60% in size;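 on activation: 100% = response of the positive control SU9516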", "conditions": "alpha7betagal myoblasts, beta-gal FDG fluorescence, 48 h; activation: at 38.3 µM (top of the series)", "procedure,_shortened": "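alpha7betagal+/- myoblasts (passage 13, 250/well) treated 48 h at 37C with compounds at 1:260 dilution of DMSO stock. Lysed, then beta-galactosidase activity read as FDG fluorescence (ex 480/em 540) after 30 min, with pre-read for autofluorescence.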", "values": [
      {"smiles": "CS(=O)(=O)c1ccc(C(=O)NCc2ccc(F)cc2)cc1", "Potency": "inconclusive: 28.2 µM [activator, single point]"},
      {"smiles": "CCCCc1nc2cc(C(=O)NCc3ccccn3)ccc2o1", "Potency": "inconclusive: 5.01 µM [activator, single point]"},
      {"smiles": "Cc1ccc(NC(=O)CSCc2cc(=O)n3ccsc3n2)c(C)c1", "Potency": "inconclusive: 14.1 µM [activator, single point]"},
      {"smiles": "CC(=O)Nc1ccc(-n2c(C)nc(=O)c(-c3ccccc3)c2C)cc1", "Potency": "inconclusive: 15.8 µM [activator, partial curve, poor fit]"},
      {"smiles": "Cc1ccc(NC(=O)c2ccc(Nc3c([N+](=O)[O-])cc([N+](=O)[O-])cc3[N+](=O)[O-])cc2)cc1", "activation": "inactive: -49.2%"},
      {"smiles": "CCn1c(SC(C)C)nnc1-c1cc(-c2ccccc2)sc1N", "activation": "inactive: -14%"},
      {"smiles": "O=C(NCCOc1ccccc1Cl)c1cc(F)c(F)cc1Cl", "activation": "inactive: 12.4%"},
      {"smiles": "CC(CCN1CCN(c2ccc(F)cc2)CC1)c1ccccc1", "note": "(stereo unspecified)", "activation": "inactive: -27.2%"},
      {"smiles": "CC(C)OCCCNC(=S)Nc1ccc(S(N)(=O)=O)cc1", "activation": "inactive: -5.2%"},
      {"smiles": "O=S(=O)(NCc1csc(-c2cccs2)n1)c1cccs1", "Potency": "inconclusive: 28.2 µM [activator, single point]"},
      {"smiles": "COC(=O)C(Cc1csc2ccc(Cl)cc12)NC(=O)c1ccc(Cl)cc1", "note": "(stereo unspecified)", "activation": "inactive: 7.19%"},
      {"smiles": "O=C1CSc2ccc(S(=O)(=O)NCc3ccc(F)cc3)cc2N1", "activation": "inactive: -24.2%"},
      {"smiles": "CN(C)c1ccc(N/C=C/C(=O)c2ccc(F)cc2)cc1", "activation": "inactive: 0%"},
      {"smiles": "Cc1ccsc1C(=O)NCCc1ccc(S(N)(=O)=O)cc1", "Potency": "inconclusive: 12.6 µM [activator, single point]"},
      {"smiles": "Cc1cc(/C=C2\\Cc3ccccc3C2=O)c(C)n1-c1ccccc1", "Potency": "inconclusive: 3.16 µM [activator, single point]"},
      {"smiles": "NC(=O)c1ccc[n+](CCC[n+]2cccc(C(N)=O)c2)c1", "Potency": "inconclusive: 28.2 µM [activator, single point]"},
      {"smiles": "S=c1[nH]nc(-c2ccccn2)n1/N=C/c1ccccc1", "activation": "inactive: -23.6%"},
      {"smiles": "CC1CCCCC1NC(=O)Cn1cc([N+](=O)[O-])ccc1=O", "note": "(stereo unspecified)", "Potency": "inconclusive: 2.82 µM [activator, single point]"},
      {"smiles": "CCOc1cc(C(=O)OCC(=O)c2c(N)n(C)c(=O)n(C)c2=O)cc(OCC)c1OCC", "activation": "inactive: 12.2%"},
      {"smiles": "CCOc1ccc2[nH]c3c(NCCc4ccc(OC)c(OC)c4)ncnc3c2c1", "Potency": "inconclusive: 1 µM [activator, full curve, poor fit]"},
      {"smiles": "O=C(Nc1cccc2ccccc12)c1cc2c(cc1Br)OCO2", "activation": "inactive: -6.63%"},
      {"smiles": "CCC1=Nc2cc(C(=O)NCC3CCCO3)ccc2Sc2ccc(Cl)cc21", "note": "(stereo unspecified)", "activation": "inactive: -56.7%"},
      {"smiles": "c1ccc(Cn2ncc3c(Nc4ccccc4)ncnc32)cc1", "Potency": "inconclusive: 10 µM [activator, partial curve, poor fit]"},
      {"smiles": "Cc1cccc(/C=N/n2c(-c3ccco3)n[nH]c2=S)c1", "Potency": "inconclusive: 10 µM [activator, single point]"},
      {"smiles": "C[C@@H]1CN([C@@H](C)CO)C(=O)CCCn2nncc2CO[C@@H]1CN(C)C(=O)c1ccc(N2CCN(C)CC2)cc1", "activation": "inactive: -8.58%"},
      {"smiles": "O=C(Nc1ccc([N+](=O)[O-])cc1)C1(c2ccccc2)CCOCC1", "Potency": "inconclusive: 4.47 µM [activator, single point]"},
      {"smiles": "CCCCN(C)CCCNC(=O)/C=C1\\Sc2ccccc2NC1=O", "Potency": "inconclusive: 1 µM [activator, full curve, poor fit]"},
      {"smiles": "CCOC(=O)c1ccc(NC(=O)c2ncn3c2C(=O)NC[C@H]3C)cc1", "Potency": "inconclusive: 3.16 µM [activator, full curve, poor fit]"},
      {"smiles": "COc1cccc(OCCNC(=O)CSc2ccc(C(F)(F)F)cc2[N+](=O)[O-])c1", "activation": "inactive: -19.1%"},
      {"smiles": "O=C(CCc1nc(-c2ccccc2)c(-c2ccccc2)o1)OCc1ccc(Cl)cc1", "activation": "inactive: 9.29%"},
      {"smiles": "COc1ccc(CN([C@H](C)CO)S(=O)(=O)N(Cc2ccccc2)[C@H](CO)C(C)C)cc1", "activation": "inactive: -9.21%"},
      {"smiles": "Brc1ccc(-c2cn3ccccc3n2)cc1", "Potency": "inconclusive: 0.501 µM [activator, full curve, poor fit]"},
      {"smiles": "COc1ccc(/C=C2/C(=O)ON=C2C)cc1Br", "activation": "inactive: 0%"},
      {"smiles": "COc1ccc(Cl)cc1C(=O)Nc1cccc2ncccc12", "Potency": "inconclusive: 5.01 µM [activator, single point]"},
      {"smiles": "CCCN1C/C(=C/c2ccc3c(c2)OCO3)C(=O)/C(=C/c2ccc3c(c2)OCO3)C1", "Potency": "inconclusive: 5.01 µM [activator, partial curve, poor fit]"},
      {"smiles": "O=C(Oc1cccc2cccnc12)c1cccc([N+](=O)[O-])c1", "Potency": "inconclusive: 1.78 µM [activator, partial curve, poor fit]"},
      {"smiles": "COc1ccc(/C=N/NC(=O)c2ccc3ccccc3c2)cc1OS(=O)(=O)c1ccc(NC(C)=O)cc1", "activation": "inactive: -24.9%"},
      {"smiles": "O=C(NC1CC1)c1cccc(NC(=O)c2cc(S(=O)(=O)N3CCOCC3)ccc2Cl)c1", "Potency": "inconclusive: 11.2 µM [activator, partial curve, poor fit]"},
      {"smiles": "O=c1oc(Nc2cccc(Cl)c2)nc2ccccc12", "Potency": "inconclusive: 10 µM [activator, partial curve, poor fit]"},
      {"smiles": "N#C/C(=C\\c1c[nH]c2ccc(Br)cc12)c1ccccn1", "Potency": "inconclusive: 3.98 µM [activator, single point]"},
      {"smiles": "COc1ccc(/C=C/C(=O)Oc2cc(O)cc(O)c2)cc1", "Potency": "inconclusive: 28.2 µM [activator, single point]"},
      {"smiles": "O=C(O)c1cccc2c1C(=O)c1ccc(-c3ccc(Cl)c(C(F)(F)F)c3)cc1S2(=O)=O", "Potency": "inconclusive: 2.82 µM [activator, single point]"},
      {"smiles": "Cc1cccc(N2CCN(C(=O)COc3cccc4c3OC(C)(C)C4)CC2)c1C", "Potency": "inconclusive: 5.01 µM [activator, single point]"},
      {"smiles": "COc1ccccc1/C=C\\C=N\\n1c(C2CCCCC2)n[nH]c1=S", "activation": "inactive: -5.61%"},
      {"smiles": "CCOCCCNC(=O)c1cn(CC)c2ccc(S(=O)(=O)N3CCC(C)CC3)cc2c1=O", "Potency": "inconclusive: 5.01 µM [activator, single point]"},
      {"smiles": "CCOc1ccc(C(Nc2cccnc2)c2cc(Cl)c3cccnc3c2O)cc1", "note": "(stereo unspecified)", "activation": "inactive: -65.1%"}
    ]}
  ]
}
